Reference: the supplement of paper PMC5949888
Most values lie at the floor of the assay. Slopes are relative: functional sequences can read slightly below zero.

system: Saccharomyces cerevisiae PS128 hsf1 delta, HSF1(1-493) fusion; test: growth estimate (transactivation domain function in HSF1 fusion, heat-shock survival) (a.u. (slope of normalised read count over time)); higher = stronger growth at 37°C, i.e. more transactivation activity; settings: library: random library

Substance | growth estimate
SKGKHAISKRVGTGPFHRAT | < -0.25
SKGLLGPEGWLRLHGITDDV | < -0.25
SKHDSCLWRKKCIGLQG | < -0.25
SKHRPVTRTRKLIMAWLEWQ | < -0.25
SKHSLMRT | < -0.25
SKIIPRYTK | -0.239
SKIYTWKSARAGAQHAIYTS | < -0.25
SKLFSERPTGTPQSRDKVRK | < -0.25
SKLQSYGTPVWVLHHLCT | < -0.25
SKMEGPFIILYWQMSRPTCR | < -0.25
SKMLGHIADQMPAMPKACDG | < -0.25
SKPVIVDTSRP | < -0.25
SKRCIPGTMRAGLWDGTSIF | < -0.25
SKRESNQQVGARLRRSGCRV | < -0.25
SKRHSSHTIRRLTSGRI | < -0.25
SKRLDCWTGNIQMP | < -0.25
SKSRDGYPMY | < -0.25
SKSRMIRRLRDSG | < -0.25
SKVLCISHSVLQAYAE | < -0.25
SKW | < -0.25
SKWPDLGDLIDKDTPPFAFL | 4.83
SKYSRFRMWDRVLSLLTYD | < -0.25
SLAELRQIFIVLRTLPWFLP | < -0.25
SLARSLDRNARSSHFQGL | < -0.25

Substance | growth estimate
SLCAVPDRYPDEVRRTWPVA | -0.246
SLCLSLLVVPECLCR | < -0.25
SLDT | < -0.25
SLENV | < -0.25
SLF | < -0.25
SLGERLDNTGTDSSGVSNGP | < -0.25
SLGGGEVRTSPVKIESGLTG | < -0.25
SLGGSGQRIWGPIYVAASRP | < -0.25
SLGHFQLTTGSSIPWVIDRL | < -0.25
SLGHQNRPFADASGAVSLKP | < -0.25
SLGLGPYYPKVVRPTCAGTN | < -0.25
SLGLTNVRLPVWNRVTLNVL | < -0.25
SLGPA | < -0.25
SLGPVWILTPVSIRWALRGQ | < -0.25
SLHGPLGAG | < -0.25
SLHVACS | -0.243
SLIL | -0.246
SLITEVPLSLTYPIPDPSPP | < -0.25
SLIWGQIVIIPWHPLG | < -0.25
SLKLIRFFGVAAIGFLEERF | < -0.25
SLKMSVHSLFCNNKHVGGAA | < -0.25
SLKQLSIPLYVCWGRSLTPP | < -0.25
SLKSISPMRFPTASGCQEVR | < -0.25
SLLG | < -0.25

Substance | growth estimate
SLLGRHVCVSRIATWAARVQ | < -0.25
SLLPGSIQSR | < -0.25
SLLSG | < -0.25
SLMGVDSPGAGEPDRLCNAI | < -0.25
SLMTQCQYRFCVKLS | < -0.25
SLNLVTP | < -0.25
SLNRIRFGVLLTLSVPVRCD | < -0.25
SLNVELLEHYEVL | < -0.25
SLNVGKSQTV | < -0.25
SLNVYERGSSCWKNATL | < -0.25
SLPPSNTVARCGTPHWYSVM | < -0.25
SLPRCITSIDQGSALPFVPV | < -0.25
SLQ | < -0.25
SLQWRTCVSE | < -0.25
SLQYDIIRPILKGSRNYNVA | < -0.25
SLR | < -0.25
SLRDTKGLWDSQPEDYMVER | < -0.25
SLRGDQADGINFGETV | -0.219
SLRGNDLAILTAFKLRFRRR | < -0.25
SLRLDTDFRRGSITE | < -0.25
SLRLPQSRSNSPRERK | -0.231
SLRNPPEDR | < -0.25
SLRQQTRAWKTGAGETDPCA | < -0.25
SLRSPEALRWS | < -0.25

Rewritten as a markdown table: entries from further up.

| Substance | growth estimate |
| --- | --- |
| SLLPGSIQSR | < -0.25 |
| SLNVELLEHYEVL | < -0.25 |
| SLNVYERGSSCWKNATL | < -0.25 |
| SLR | < -0.25 |
| SLRGNDLAILTAFKLRFRRR | < -0.25 |
| SLRLPQSRSNSPRERK | -0.231 |

More results.

Substance | growth estimate
SLRTTGGRVVASRGNAPDGQ | < -0.25
SLSECRRLVPFIHRVHYWTY | < -0.25
SLSEGALRYLSRSATRPSIV | < -0.25
SLSMRIIVGACKST | < -0.25
SLSPSDGHRGGVSYFGDLPR | < -0.25
SLSTNLRFRCKHG | < -0.25
SLT | < -0.25
SLTDPA | < -0.25
SLTMGGDVVVEYS | -0.243
SLTPVFVLRQVFVLYNSRDH | < -0.25
SLTVG | < -0.25
SLVATKPNAPRI | < -0.25
SLVD | < -0.25
SLVEFGFALESGPQALESPV | < -0.25
SLVRHKTAPRRLHGTGSFGL | < -0.25
SLVTRAVAYTIRRYREKFRS | < -0.25
SLVVLRGLLLTLVQA | < -0.25
SLYGIAELLLDVETSNSGRQ | -0.192
SMFDRLL | < -0.25
SMGRRADENQAASRR | < -0.25
SMKFVGVFITLLHSARRGVS | < -0.25
SMKSCQT | < -0.25
SMLDMNMPQSWGRPIPLGRW | < -0.25
SMLGEQRGATESCSHGHHLA | < -0.25

Substance | growth estimate
SMP | < -0.25
SMQEEGGRAQSEPRCRRYTR | < -0.25
SMRSVHGTDTLGLLEHISNL | < -0.25
SMRYPVVWP | < -0.25
SMSRSAPEFSGGLGHSEERF | < -0.25
SMTPHSRLRIAAGGFL | < -0.25
SMTPLPVTLRLFVRRLDLYT | < -0.25
SMVSAFCSVGAKVEGVGGEV | < -0.25
SNAVC | < -0.25
SNEIRSRGLAYRELRPLCPP | < -0.25
SNERFSEGRMCFCVAEAHRF | < -0.25
SNEV | < -0.25
SNFFRLLGILIMPLNSSLIL | < -0.25
SNGFTSCFGTRWTINWA | < -0.25
SNGVH | < -0.25
SNHFAKNIDYLDDMRHRTL | < -0.25
SNIALSYKSLPEQRTTDGPG | < -0.25
SNIL | < -0.25
SNKMIPISLA | < -0.25
SNLDLACFGCERVRRPMA | < -0.25
SNLGTDG | < -0.25
SNLGTVTDHGCSNRDSPVVS | < -0.25
SNLIERAGPLHTQITVECRP | < -0.25
SNLLRPERLL | < -0.25

Substance | growth estimate
SNLRLHHHLSL | < -0.25
SNPMSLQSVTLPRSATRGYK | < -0.25
SNPVHFELIRCSTKFSGCAG | < -0.25
SNQSHHLFSIGRNAT | < -0.25
SNRSLRRTSVLLILPILVST | < -0.25
SNRVNCPTYPKNVTPLSARS | < -0.25
SNS | < -0.25
SNSHRSHWAREATRYVRPHF | < -0.25
SNSSEGWERLQECTRHGHEV | < -0.25
SNSSLQLNGIPMSDGSSL | < -0.25
SNSTVL | < -0.25
SNTISVRVARKASNIFSSCA | < -0.25
SNTQSGSCK | < -0.25
SNTTTGWMV | < -0.25
SNVGVYFRVEGDANSTVEIK | < -0.25
SNVS | < -0.25
SNWRAWYYQSKVCVSYGKGR | < -0.25
SPAYTG | < -0.25
SPCFVWQRTLASTDFTILTL | < -0.25
SPCGRWAVRGPSESRNIKWT | < -0.25
SPCNASFMSTRTRATSPYDT | < -0.25
SPCRDRQHLRTMLEQIGFGV | < -0.25
SPD | -0.154
